Laboratory results: patent publication US8906897B2, “Antimicrobial agents based on hemin derivatives” (Obschestvo S Ogranichennoi Otvetstvennostiyu …, priority 2009, dated 2014)
Values after ≈ are worked out from the molar mass of the structure shown.

What was measured:
[1] = system: Enterococcus faecium No. 569; assay: Specific activity against resistant bacterial strains; assay type: cell-based; details: NO.569, read-out: MICs for Vancomycin
[2] = system: Staphylococcus epidermidis No. 533; assay: as above; assay type: cell-based; details: NO.533, read-out: MICs for Vancomycin
Protocol: The tested agents were water-soluble hemin derivatives (compounds VII and XVIII) or DMSO-soluble derivatives (compounds VIII, XV, and XIV). Vancomycin was the reference compound. Each compound was tested in three replicas.
Sterile single-use flat-bottomed 96-well plates, Petri dishes, pipettes, tips, and test tubes (Pan-Eco, Moscow) were used in the study.
The nutritional media used were as follows. A working Mueller Hinton broth was prepared from dry media (Mueller Hinton broth, Acumedia, Baltimore) and sterilized by autoclaving at 121° C. for 15 min.
Staphylococcus aureus was cultured on the Tripticase Soy Agar (BBL) commercially available dry medium. Enterococcus faecalis was cultured on the Columbia Agar Base (BBL) commercially available dry medium. These media were sterilized by autoclaving at 121° C. for 15 min.
Bacterial inoculum was fixed and equal to 5×10^5 CFU/mL.
For water-soluble compounds, wells from 2nd through 8th were added with the solvent (water) in an amount of 15 μL per well, then the 1st well was added with 30 μL of the stock solution of the tested compound in water with a concentration of 1×10^3M, and the concentration was adjusted to 0.007×10^3 M by serial twofold dilutions. […]
Culture growth was evaluated visually by comparison of how microorganisms grew in the presence of tested compounds and in the absence of them. […]

CN[C@H](CC(C)C)C(=O)N[C@H]1C(=O)N[C@@H](CC(N)=O)C(=O)N[C@H]2C(=O)N[C@H]3C(=O)N[C@H](C(=O)N[C@H](C(=O)O)c4cc(O)cc(O)c4-c4cc3ccc4O)[C@H](O)c3ccc(c(Cl)c3)Oc3cc2cc(c3O[C@@H]2O[C@H](CO)[C@@H](O)[C@H](O)[C@H]2O[C@H]2C[C@](C)(N)[C@H](O)[C@H](C)O2)Oc2ccc(cc2Cl)[C@H]1O [Vancomycin, reference compound]
MIC [1]: > 32 µg/mL
MIC [2]: 1 µg/mL (≈ 0.69 µM)
